Experimental findings from publication doi:10.1101/2024.07.01.601539 are described below.

No constants are given. Whether binding was seen depends on the method and setting. Binding calls can cover weak binding; strength is not graded here.

The assay deals with recombinant LC3C (Microtubule-associated protein 1A/1B-light chain 3, isoform C) (UniProt Q9BXW4). In words: far-Western, overlay or dot blot.

On to “recombinant Heat Shock Protein 27 (HSp27) (from UniProt P04792 1-205)”, for which the binding entry was “binds”.
